Data published in US7807362.
For at least one entry, the source does not settle the construct or the ends of the probe. A negative result means that nothing was seen under these conditions. Protein sequences can lack the tags named with them.

What was measured:
hScratch (Homo sapiens) = biological target: T1, hScratch (Homo sapiens) (UniProt Q9BWW7); experiment: activity in cells; details: protein in cells, protein details: expression vector
T1 sequence (looked up, limits assumed): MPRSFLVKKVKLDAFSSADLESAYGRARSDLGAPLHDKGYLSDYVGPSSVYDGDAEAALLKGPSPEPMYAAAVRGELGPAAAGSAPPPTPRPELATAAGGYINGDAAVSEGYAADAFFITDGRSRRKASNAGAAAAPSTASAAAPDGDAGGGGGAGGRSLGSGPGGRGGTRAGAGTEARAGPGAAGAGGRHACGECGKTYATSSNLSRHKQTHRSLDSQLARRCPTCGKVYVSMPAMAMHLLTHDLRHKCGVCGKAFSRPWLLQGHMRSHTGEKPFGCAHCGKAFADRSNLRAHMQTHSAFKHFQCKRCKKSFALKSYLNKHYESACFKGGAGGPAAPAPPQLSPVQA

[1] = biological target: T2, hSlug (SNAI2) (Homo sapiens) (UniProt O43623); experiment: activity in cells; details: protein in cells, protein details: pCMV-Slug expression vector
T2 sequence (looked up): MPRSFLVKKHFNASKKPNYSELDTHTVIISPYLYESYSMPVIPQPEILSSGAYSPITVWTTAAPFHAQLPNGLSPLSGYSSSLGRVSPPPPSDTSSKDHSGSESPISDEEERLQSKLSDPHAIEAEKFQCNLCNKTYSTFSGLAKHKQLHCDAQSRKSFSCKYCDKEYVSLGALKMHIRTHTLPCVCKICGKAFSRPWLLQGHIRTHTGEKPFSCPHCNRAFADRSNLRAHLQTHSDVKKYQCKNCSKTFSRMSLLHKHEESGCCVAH

[2] = repression of luciferase in SK-N-BE(2)C

Row | Sequence | activity on this sequence (hScratch (Homo sapiens); little effect on reporter) | activity on this sequence ([1]; little effect on reporter) | activity on this sequence (hScratch (Homo sapiens); [2]) | activity on this sequence [1, 2]
1 | GAATTCAGGGCAGGTCAGCTGCAGTGTAATATATGCCTATTGTCCCCTGATCAAGACAGAAAGACAGAATGAAAAGGAAGAAGGAAGGAAGGAACGGAGGAAAGAAAAGAGGGATGGAGGAAACAAATATGTAGGCAAACCTCTCCTCCTTTTTTTCCTTAGTCTCCTCATTGGTGCCATGGAGGTGTAGGTTCTGATAGCGTCCTCAGCGGACACAGGCCCTTGGATTCTAAATGTGTCCCAGCCCAGCTGTTGTGTGTCAGGGCCCCAGTGTCTGTGGGGAGATGGCCAGAGATGGACTCACAGCATCAGCCATTGCCTTTTACCCCATGGCCTGTGTCACCAAGTGCCATGGTAAGTGGAAGTGATGGCTCCCCAGAGATCACATTAGCTCTGATAATGCTCCAGCCTCCCATGCACAACTTGCCCTCAGGCCACCTGGCTGGGCAGGAAGAAGGGCTCCCAGAGAAGCCACATGGCCCCATGGCGGTGAGTCTGGGCGAGAGATGGAGAGAGACGCCTTCCCTTTTAGCCCAGTCCCAGCCTAGTGTCCTCACTGCTGACCCCCGGTAGTCTCTGAAACCACAGATGGAGCTCCCAGACTTGCTGATTGGCCCCCGTGATGGCGTGCGCATTAGGAGGAAATGCCTCCCTCCACCCTTGTAGCAAACACTTCCAGCTCCATGCCCACACCCCTTATCATCCACTGTTCCTGCCAGTGCAGACCCAACCCAATGGCTTCGTGCTGCCAGTACCTGGGGCTCTGCTGTTAGCCTTTCTCTGGCAGCAGGACAGGCTCATCCCTCTTATCAGACAGGCTGGACTTGGTGGGAAGTTGACACTCTGGGGGCGGCCTTCATGGATAAATACTGTAGTTTTCTTGCCCCTCAAGTGAGACAACCCCAAGGCGTGCTCTGTGCAGTCTCCCGAGGCCCCCACCAGGGCTGAGCACCAGTTTCCCCAGCAGCAAGTGCTCCTTAATCTACTTTCTCCTGGTTTCCTTCCCTTTGCTGTCTC (double strand) [4.0 kb hNET promoter-luciferase, -3081(A), pNET4000(i)LUC(A)] | not active | not active | – | –
2 | GAATTCAGGGCAGGTCAGCTGCAGTGTAATATATGCCTATTGTCCCCTGATCAAGACAGAAAGACAGAATGAAAAGGAAGAAGGAAGGAAGGAACGGAGGAAAGAAAAGAGGGATGGAGGAAACAAATATGTAGGCAAACCTCTCCTCCTTTTTTTCCTTAGTCTCCTCATTGGTGCCATGGAGGTGTAGGTTCTGATAGCGTCCTCAGCGGACACAGGCCCTTGGATTCTAAATGTGTCCCAGCCCAGCTGTTGTGTGTCAGGGCCCCAGTGTCTGTGGGGAGATGGCCAGAGATGGACTCACAGCATCAGCCATTGCCTTTTACCCCATGGCCTGTGTCACCAAGTGCCATGGTAAGTGGAAGTGATGGCTCCCCAGAGATCACATTAGCTCTGATAATGCTCCAGCCTCCCATGCACAACTTGCCCTCAGGCCACCTGGCTGGGCAGGAAGAAGGGCTCCCAGAGAAGCCACATGGCCCCATGGCGGTGAGTCTGGGCGAGAGATGGAGAGAGACGCCTTCCCTTTTAGCCCAGTCCCAGCCTAGTGTCCTCACTGCTGACCCCCGGTAGTCTCTGAAACCACAGATGGAGCTCCCAGACTTGCTGATTGGCCCCCGTGATGGCGTGCGCATTAGGAGGAAATGCCTCCCTCCACCCTTGTAGCAAACACTTCCAGCTCCATGCCCACACCCCTTATCATCCACTGTTCCTGCCAGTGCAGACCCAACCCAATGGCTTCGTGCTGCCAGTACCTGGGGCTCTGCTGTTAGCCTTTCTCTGGCAGCAGGACAGGCTCATCCCTCTTATCAGACAGGCTGGACTTGGTGGGAAGTTGACACTCTGGGGGCGGCCTTCATGGATAAATACTGTAGTTTTCTTGCCCCTCAAGTGAGACAACCCCAAGGCGTGCTCTGTGCAGTCTCCCGAGGCCCCCACCAGGGCTGAGCACCTGTTTCCCCAGCAGCAAGTGCTCCTTAATCTACTTTCTCCTGGTTTCCTTCCCTTTGCTGTCTC (double strand) [4.0 kb hNET promoter-luciferase, -3081(T), pNET4000(i)LUC(T)] | – | – | active | active
